# Assay results from publication PMC7862700.
# This is a selection; strong and weak results do not stand in their true shares. At the low end of the ranking the order means little.
# Target: T1, ELK3 (UniProt P41970)
# T1 sequence: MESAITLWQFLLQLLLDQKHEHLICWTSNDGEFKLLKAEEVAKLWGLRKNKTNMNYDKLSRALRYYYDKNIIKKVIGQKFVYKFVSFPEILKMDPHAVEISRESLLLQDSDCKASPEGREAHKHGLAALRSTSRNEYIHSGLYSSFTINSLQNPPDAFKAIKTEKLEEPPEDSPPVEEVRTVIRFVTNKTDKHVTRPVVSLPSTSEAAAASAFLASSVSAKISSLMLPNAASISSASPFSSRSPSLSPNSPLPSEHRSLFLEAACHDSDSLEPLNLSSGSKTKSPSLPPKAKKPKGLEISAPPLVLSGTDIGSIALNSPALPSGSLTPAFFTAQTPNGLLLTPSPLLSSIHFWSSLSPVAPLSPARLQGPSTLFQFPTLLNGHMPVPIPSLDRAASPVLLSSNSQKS
# Test: DAPPL (digital affinity profiling via proximity ligation, sequencing)
# Conditions: 10 mM Tris-HCl pH 7.5, 50 mM NaCl, 1 mM DTT, 4% glycerol, room temperature, 30 min; GST-TFs on glutathione beads, 16-mer random dsDNA library, 0.1% …; high values mean tight binding; double strand, one strand shown; scale: fold enrichment (6-mer frequency, TF over GST control)
row,Sequence,binding signal
1,TCCGCA,2.24
2,ATTTGT,1.24
3,CTTCTT,1.61
4,CGATAG,1.11
5,TTATAA,1.33
6,TCAATT,0.989
7,TCAAAT,1.03
8,CCGTTC,1.4
9,CGCTTG,1.07
10,TTGGTT,1.43
11,CTTAAC,1.31
12,AAGGCA,0.892
13,CTTTGA,1.15
14,GAAGAA,1.13
15,GAACAA,1.2
16,GTGCCT,0.994
17,CTCTAC,1.27
18,AAAGTT,1.17
19,TACGCA,1.25
20,ACGTTG,1.01

row,Sequence,binding signal
1,CCTTAC,1.22
2,GCTAAG,0.871
3,TGCGTT,1.13
4,GTTTTG,1.11
5,TCACCA,1.22
6,AACGCC,0.988
7,TTGAGG,0.96
8,ATTATC,1.32
9,ATGCCT,1.22
10,TAAGCA,0.928
11,CCACAT,1.14
12,GTCCTT,1.25
13,AACATT,1.25
14,TTCGAG,1.3
15,CCGTTT,1.35
16,CTACCC,1.31
17,ACATGT,1.06
18,GCACTG,1.06
19,ACTCAT,1.34
20,AACCCC,1.14

# Some values from the list:
# ATGCCT | binding signal: 1.22
# AAAGTT | binding signal: 1.17
